Reference: publication PMC7558343
These are yes or no findings as the source states them, for the method shown. Binding seen in cells or lysates may run through a third protein. Some entries that bind do so weakly or less than the wild type. Sequences can lack the tags named with a protein.

Amino acid sequences for entries named in this document (tags omitted).
UniProt O43865: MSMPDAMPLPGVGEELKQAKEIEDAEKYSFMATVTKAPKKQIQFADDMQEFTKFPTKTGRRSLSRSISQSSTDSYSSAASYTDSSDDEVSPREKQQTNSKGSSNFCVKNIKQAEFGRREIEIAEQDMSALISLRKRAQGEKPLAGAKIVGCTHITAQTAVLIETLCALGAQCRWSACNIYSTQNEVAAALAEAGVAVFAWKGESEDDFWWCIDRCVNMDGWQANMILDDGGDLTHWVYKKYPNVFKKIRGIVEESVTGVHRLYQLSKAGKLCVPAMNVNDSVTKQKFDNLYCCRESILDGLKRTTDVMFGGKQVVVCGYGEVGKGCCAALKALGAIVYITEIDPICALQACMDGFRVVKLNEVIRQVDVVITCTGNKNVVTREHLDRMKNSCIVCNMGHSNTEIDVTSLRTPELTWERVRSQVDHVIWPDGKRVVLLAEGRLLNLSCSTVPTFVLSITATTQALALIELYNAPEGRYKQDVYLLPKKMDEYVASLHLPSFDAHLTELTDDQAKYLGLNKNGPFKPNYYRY

Molecular target: GFP-tagged IRBIT (IP3 receptor-binding protein released with IP3) (UniProt O43865)
Assay: co-IP; HEK293T cells transfected with HA-NBCn1 and GFP-IRBIT; lysate (20 mM Tris, 150 mM NaCl, 2 mM EDTA, 1% Triton X-100) immunoprecipitated with GFP antibody at 4 °C for 16 h, protein G agarose beads, blotted with NBCn1 antibody

- binding: binds
B1: HA-tagged NBCn1 (electroneutral sodium bicarbonate cotransporter 1) (protein, UniProt Q9Y6M7 1-1214)
chain: MERFRLEKKLPGPDEEAVVDLGKTSSTVNTKFEKEELESHRAVYIGVHVPFSKESRRRHRHRGHKHHHRRRKDKESDKEDGRESPSYDTPSQRVQFILGTEDDDEEHIPHDLFTEMDELCYRDGEEYEWKETARWLKFEEDVEDGGDRWSKPYVATLSLHSLFELRSCILNGTVMLDMRASTLDEIADMVLDNMIASGQLDESIRENVREALLKRHHHQNEKRFTSRIPLVRSFADIGKKHSDPHLLERNGEGLSASRHSLRTGLSASNLSLRGESPLSLLLGHLLPSSRAGTPAGSRCTTPVPTPQNSPPSSPSISRLTSRSSQESQRQAPELLVSPASDDIPTVVIHPPEEDLEAALKGEEQKNEENVDLTPGILASPQSAPGNLDNSKSGEIKGNGSGGSRENSTVDFSKVDMNFMRKIPTGAEASNVLVGEVDFLERPIIAFVRLAPAVLLTGLTEVPVPTRFLFLLLGPAGKAPQYHEIGRSIATLMTDEIFHDVAYKAKDRNDLLSGIDEFLDQVTVLPPGEWDPSIRIEPPKSVPSQEKRKIPVFHNGSTPTLGETPKEAAHHAGPELQRTGRLFGGLILDIKRKAPFFLSDFKDALSLQCLASILFLYCACMSPVITFGGLLGEATEGRISAIESLFGASLTGIAYSLFAGQPLTILGSTGPVLVFEKILYKFCRDYQLSYLSLRTSIGLWTSFLCIVLVATDASSLVCYITRFTEEAFAALICIIFIYEALEKLFDLGETYAFNMHNNLDKLTSYSCVCTEPPNPSNETLAQWKKDNITAHNISWRNLTVSECKKLRGVFLGSACGHHGPYIPDVLFWCVILFFTTFFLSSFLKQFKTKRYFPTKVRSTISDFAVFLTIVIMVTIDYLVGVPSPKLHVPEKFEPTHPERGWIISPLGDNPWWTLLIAAIPALLCTILIFMDQQITAVIINRKEHKLKKGAGYHLDLLMVGVMLGVCSVMGLPWFVAATVLSISHVNSLKVESECSAPGEQPKFLGIREQRVTGLMIFILMGLSVFMTSVLKFIPMPVLYGVFLYMGVSSLKGIQLFDRIKLFGMPAKHQPDLIYLRYVPLWKVHIFTVIQLTCLVLLWVIKVSAAAVVFPMMVLALVFVRKLMDLCFTKRELSWLDDLMPESKKKKEDDKKKKEKEEAERMLQDDDDTVHLPFEGGSLLQIPVKALKYSPDKPVSVKISFEDEPRKKYVDAETSL
